From article PMC10244698, “Polypyrimidine tract binding protein 1 (PTBP1) contains a novel regulatory sequence, the rBH3, that binds the prosurvival protein MCL1” (The Journal of Biological Chemistry, 2023)
No constants are given. Whether binding was seen depends on the method and setting. For some assays here: Binding seen in cells or lysates may run through a third protein. Some entries that bind do so weakly or less than the wild type.

Amino acid sequences for entries named in this document (tags omitted).
UniProt P26599: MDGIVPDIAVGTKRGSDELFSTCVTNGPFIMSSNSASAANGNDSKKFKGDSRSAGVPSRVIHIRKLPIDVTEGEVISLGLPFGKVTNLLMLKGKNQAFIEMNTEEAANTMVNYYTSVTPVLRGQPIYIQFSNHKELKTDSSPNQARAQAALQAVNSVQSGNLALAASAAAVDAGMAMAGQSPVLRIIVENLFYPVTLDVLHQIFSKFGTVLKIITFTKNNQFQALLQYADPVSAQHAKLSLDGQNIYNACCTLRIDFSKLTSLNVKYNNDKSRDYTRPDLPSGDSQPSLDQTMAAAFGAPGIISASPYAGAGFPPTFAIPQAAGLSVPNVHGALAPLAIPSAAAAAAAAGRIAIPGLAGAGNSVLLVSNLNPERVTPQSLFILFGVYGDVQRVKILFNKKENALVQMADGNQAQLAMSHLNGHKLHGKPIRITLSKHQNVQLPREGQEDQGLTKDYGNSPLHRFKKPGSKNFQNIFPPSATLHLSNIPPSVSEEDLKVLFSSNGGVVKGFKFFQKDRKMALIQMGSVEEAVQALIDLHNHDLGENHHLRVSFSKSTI

Experiments:
[1] = target: T1, FITC-labeled peptide containing the RRM1 rBH3 sequence (human); assay: condition: only with pharmacologic inhibition of the MCL1-binding groove; fluorescence polarisation; direct FPA of F-RRM1_(rBH3) peptide and MCL1 with pharmacologic inhibition of the MCL1-binding groove (Fig. S1); both purified
T1 sequence (peptide, FITC-Ahx on the N-terminus): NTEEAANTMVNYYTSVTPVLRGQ

[2] = target: Polypyrimidine tract binding protein 1 (PTBP1), endogenous (human (endogenous in MDA-MB-468)) (UniProt P26599); assay: co-IP; 25 ug recombinant MCL1 added to MDA-MB-468 lysate (1 mg protein); endogenous PTBP1 captured with anti-PTBP1 antibody and magnetic beads; Western blot for MCL1; only the binder purified

binding [1]: no binding
binding [2]: binds
B1: myeloid cell leukemia-1 (MCL1), residues 163-326 (domain or fragment, human, UniProt Q07820 163-326, looked up)
chain: TPPPAEEEEDELYRQSLEIISRYLREQATGAKDTKPMGRSGATSRKALETLRRVGDGVQRNHETAFQGMLRKLDIKNEDDVKSLSRVMIHVFSDGVTNWGRIVTLISFGAFVAKHLKTINQESCIEPLAESITDVLVRTKRDWLVKQRGWDGFVEFFHVEDLEG
notes: human MCL1, UniProt Q07820, residues 163-326, cloned into pET28a; also called recombinant MCL1; source: E. coli BL21 (DE3), purified (nickel chromatography, gel filtration)
